These are yes or no findings as the source states them, for the method shown. In cells and extracts the contact can be indirect. Some entries that bind do so weakly or less than the wild type. Tags and fused reporters may be left off the sequences shown.
Target: T1, wild type human FFA2 tagged with eYFP at its C terminus (human) (UniProt O15552)
T1 sequence: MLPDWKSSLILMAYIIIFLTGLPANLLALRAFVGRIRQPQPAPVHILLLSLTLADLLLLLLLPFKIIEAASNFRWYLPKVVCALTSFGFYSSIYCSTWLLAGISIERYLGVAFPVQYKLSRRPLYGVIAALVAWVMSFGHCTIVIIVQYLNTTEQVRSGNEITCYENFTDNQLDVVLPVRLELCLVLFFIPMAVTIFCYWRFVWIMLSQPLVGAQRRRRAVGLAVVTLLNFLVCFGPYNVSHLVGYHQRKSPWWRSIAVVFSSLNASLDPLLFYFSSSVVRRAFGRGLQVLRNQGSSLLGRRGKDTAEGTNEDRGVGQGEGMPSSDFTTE
Assay: FRET or BRET

Protein sequences, listed by entry. Tags and fused reporters are not part of them.
UniProt P32121: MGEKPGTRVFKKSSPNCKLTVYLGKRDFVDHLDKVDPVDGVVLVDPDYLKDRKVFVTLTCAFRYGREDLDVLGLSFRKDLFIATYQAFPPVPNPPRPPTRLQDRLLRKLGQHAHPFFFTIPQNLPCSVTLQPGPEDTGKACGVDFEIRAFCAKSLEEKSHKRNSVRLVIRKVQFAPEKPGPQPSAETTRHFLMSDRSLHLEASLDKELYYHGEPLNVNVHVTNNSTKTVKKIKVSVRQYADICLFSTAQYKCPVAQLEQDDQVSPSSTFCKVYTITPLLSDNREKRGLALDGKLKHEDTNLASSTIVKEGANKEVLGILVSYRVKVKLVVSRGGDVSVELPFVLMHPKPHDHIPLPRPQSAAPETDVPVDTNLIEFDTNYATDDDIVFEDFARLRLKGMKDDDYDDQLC

In the case of “β-arrestin-2-Renilla-luciferase (from UniProt P32121 1-409)”, the binding is reported as “binds”.

— paper doi:10.1101/2020.01.11.902726
